Data as given in patent US20190275201A1, “PHOTOPOLYMERIZABLE BONE FILLER MATERIAL” (ECOLE POLYTECHNIQUE FEDERALE DE LAUSANNE (EPFL), priority 2016, published 2019).

Assay: Photorheology of photopolymerized bone cement
Conditions: 405 nm; for photopolymerization in photorheology testing: 3.5 mW/cm^2, up to 30 minutes of illumination; for Photopolymerization time: photorheology, 3.5 mW/cm^2, 1000 μm sample

| Structure (SMILES) | photopolymerization in photorheology testing | Photopolymerization time |
| --- | --- | --- |
| CC12CCC(C(=O)C1=O)C2(C)C (stereo not drawn) [Camphorquinone] | photopolymerization | 15 min |
| Cc1cc(C)c(C(=O)P(=O)(C(=O)c2c(C)cc(C)cc2C)c2ccccc2)c(C)c1 [Irgacure 819, Phosphine oxide, phenyl bis (2,4,6-trimethyl benzoyl)] | photopolymerization | 1 min |
| CC(C)(O)C(=O)c1ccc(OCCO)cc1 [Irgacure 2959, 1-[4-(2-Hydroxyethoxy)-phenyl]-2-hydroxy-2-methyl-1-propane-1-one] | did not polymerize | ∞ |
